Results as given in article doi:10.1101/330878.

Target: DipA (c-di-GMP phosphodiesterase PA5017) (Pseudomonas aeruginosa) (UniProt Q9HUF2)
Assay: two-hybrid

In the case of “ParP (Par-like partitioning protein of P. aeruginosa) (from UniProt G3XCY3)”, the binding was “binds”.

Results are given in words; binding and its absence hold for the method and conditions named. Binding calls can cover weak binding; strength is not graded here.
